Measurements: patent US6811972
These are yes or no findings as the source states them, for the method shown. Some results given as binding are weak or reduced against the parent protein; the word gives no strength.

Sequences of proteins named here, by UniProt entry; tags and fusion partners are left off. Residues count along the entry.
UniProt P01579, residues 24-166: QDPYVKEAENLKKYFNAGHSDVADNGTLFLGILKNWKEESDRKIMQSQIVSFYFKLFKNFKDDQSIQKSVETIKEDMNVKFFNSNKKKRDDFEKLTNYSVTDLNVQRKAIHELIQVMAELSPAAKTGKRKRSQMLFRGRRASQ

Molecular target: T1, human immune interferon (IFN-γ) receptor (human) (UniProt P15260)
T1 sequence (looked up): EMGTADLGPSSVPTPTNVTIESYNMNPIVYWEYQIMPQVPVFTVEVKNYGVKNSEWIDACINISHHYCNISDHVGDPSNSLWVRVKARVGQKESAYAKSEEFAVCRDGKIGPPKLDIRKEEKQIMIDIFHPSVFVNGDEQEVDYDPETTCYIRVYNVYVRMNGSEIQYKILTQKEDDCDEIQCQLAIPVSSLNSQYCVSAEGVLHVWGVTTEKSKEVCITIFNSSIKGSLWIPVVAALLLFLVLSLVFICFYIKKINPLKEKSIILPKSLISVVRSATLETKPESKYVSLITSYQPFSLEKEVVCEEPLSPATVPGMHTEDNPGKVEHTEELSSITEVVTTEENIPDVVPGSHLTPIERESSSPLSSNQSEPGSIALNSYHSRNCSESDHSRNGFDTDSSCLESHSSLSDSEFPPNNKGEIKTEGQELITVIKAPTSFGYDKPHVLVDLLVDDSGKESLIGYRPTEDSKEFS
Experiment: binding of labeled ligand to CREF-Trans 6 clones expressing the human IFN-γ receptor

labeled IFN-γ (from UniProt P01579 24-166) (ligand)
binding: binds
